Measured values taken from patent US8222210B2 (priority 2005, dated 2012).
For at least one compound, name, drawing or mass did not settle the structure. Non-standard residues stand in square brackets, D forms with d. Residues, ends and D or L forms follow the SMILES beside them.

Test system: cellular growth
Test: cellular growth promoting activity (description)
Format: cell-based

CC(C)C[C@H](NC(=O)[C@H](CC(C)C)NC(=O)[C@@H](Cc1c[nH]c2ccccc12)NC(=O)[C@H](Cc1ccccc1)NC(=O)[C@@H](Cc1c[nH]c2ccccc12)NC(=O)[C@H](CCC(N)=O)NC(=O)[C@H](CCC(N)=O)NC(=O)[C@@H]1CCCN1C(=O)[C@H](CCCCN)NC(=O)[C@@H]1CCCN1C(=O)[C@H](N)CCCNC(=N)N)C(N)=O [spantide] (H-[dR]PKPQQ[dW]F[dW]LL-NH2)
cellular growth promoting activity: stimulate epithelial cell growth
